Source: patent US20110160303A1, “N-ALKYLCARBONYL-AMINO ACID ESTER AND N-ALKYLCARBONYL-AMINO LACTONE COMPOUNDS AND THEIR USE” (Edward Tak WEI, priority 2005, published 2011)
Some of these results come from one statement about several compounds together. For some of these results: For at least one compound, name, drawing or mass did not settle the structure.

What was measured:
skin above the upper lip [1] = assay: Cooling sensation on facial skin, ointment applied to skin above the upper lip; format: in vivo, human; conditions: for Duration of Skin Cooling: 40 mM (1% wt/vol) ointment
Excerpt: A reliable place for topical application is the skin above the upper lip (above the vermilion border of the lips), on the philtrum, lateral to the philtrum until the nasolabial folds, and on the lower nostrils (subnasale). This part of the face is known to be densely innervated with cold receptors, second only to the surfaces of the eyeball and anogenitalia. A second location is on or below the malar eminence (cheekbone). The skin above the cheekbone is thicker than above the lips, and therefore has a higher threshold for activation. At both loci, tingling, cool and cold sensations in the skin may be experienced and rated for time of onset and intensity.
The intensity of the subjective skin sensation is rated as 0, 1, 2 or 3 with: 0 as no change; 1 as slight coolness, cold, or tingling; 2 as clear-cut signal of coolness, cold, or tingling; and 3 as robust cooling or cold. The intervals for recording sensations are 5 to 10 minutes, until two successive zeroes are obtained. The results (shown in FIGS. 1 and 2) are averaged values of 4 to 6 separate trials in the same individual. The data are plotted using SigmaPlot® (Systat Software, Point Richmond Calif.) and a smoothing function with a negative exponential was used for analysis and statistical fit of the results. Confirmatory trials of cooling action of the long-acting NACE compounds were obtained in 2 to 4 individuals but not quantified for some because of the large number of chemicals that were evaluated.
The onset of drug action is taken as the time to reach 2 units of coolness intensity, and offset of drug action is the time when coolness intensity drops below 2, after previously surpassing 2 units. The duration of cooling action is defined as the offset time minus the onset time. […] The quality of the sensation is noted, for example, as pure refreshing coolness, or if the sensation is accompanied by irritation (stinging or burning). The quality of the sensation is not rated for intensity. […]

oral cavity = assay: Oral cavity test, substance placed on dorsal surface of the tongue; format: in vivo, human; conditions: Study 7, 2 or 4 mg on the tongue, normal subjects
Procedure: The subject is instructed to close and hold the substance in the mouth for at least 10 seconds and not to swallow. The description of sensations is then recorded at 5 minute intervals.
The compounds of Formula (1) and (2) are white crystalline solids at room temperatures. These compounds were tested as such, or mixed 1:1 with powdered or granulated sugar. The test substances were applied at 1 to 5 mg on the mid-point of the dorsal surface of the tongue using a metal spatula or a plastic applicator. After depositing the test substance on the tongue, the subject was instructed to keep the mouth closed and allow the fluids of the mouth to inter-mix with the test substance and to distribute it to the back of the mouth (oropharynx). The presence and duration of subjective sensations from the mouth was then noted.
In normal subjects, the effects of the D-Ala methyl and ethyl ester compounds falling within Formula (1) ((R)-2-[((1R,2S,5R)-2-isopropyl-5-methyl-cyclohexanecarbonyl)-amino]-propionic acid methyl or ethyl ester)) were examined. Three doses of 1, 2 and 4 mg per application were examined and compared to a similar dose of the L-Ala methyl or ester analog ((S)-2-[((1R,2S,5R)-2-isopropyl-5-methyl-cyclohexanecarbonyl)-amino]-propionic acid methyl or ethyl ester). […]

skin above the upper lip [2] = conditions: commercial cosmetic cooling compounds; cited from earlier work

Question: Which “Duration of Action On-Off (minutes): duration (offset minus onset)” value (skin above the upper lip [1]; 40 mM Aquaphor ointment) does the source give for `CC(C)[C@@H]1CC[C@@H](C)C[C@H]1O` [(−)-menthol, 1R-(1α-2β-5α)-5-methyl-2-(1-methylethyl)cyclohexanol, reference compound] here?
Answer: less than 20 minutes

Question: With `CCOC(=O)CNC(=O)[C@@H]1C[C@H](C)CC[C@H]1C(C)C` [Gly Et Ester (WS-5), N-p-menthanecarbonyl glycine ethyl ester, reference compound] as the compound, how does the “duration of cooling in the mouth and throat” value (oral cavity) read?
Answer: less than 10 minutes

Question: Which “Duration of Skin Cooling” value (skin above the upper lip [1]; listed as WS-31) does the source give for `COC(=O)CNC(=O)C1CC(C)CCC1C(C)C` (stereo not shown) [Gly Me Ester (WS-31), reference compound] here?
Answer: less than 1 hour

Question: With `CCOC(=O)CN(C)C(=O)C1CC(C)CCC1C(C)C` (stereo not shown) [Sar Et Ester] as the compound, how does the “duration of cooling in the mouth and throat” value (oral cavity) read?
Answer: less than 10 minutes

Question: Which “Duration of Skin Cooling” value (skin above the upper lip [1]) does the source give for `CNC(=O)C(C)(C(C)C)C(C)C` [WS-23, N-2,3-trimethyl-2-isopropylbutanamide, reference compound] here?
Answer: less than 1 hour

Question: Which “duration of action on the facial skin” value (skin above the upper lip [2]) does the source give for `CC1CCC(C(C)C)C2(C1)OCC(CO)O2` (stereo not shown) [menthone glycerin acetal] here?
Answer: ≤ 30 min

Question: With `CC1CCC(C(C)C)C(OC(=O)C(C)O)C1` (stereo not shown) [menthyl lactate] as the compound, how does the “duration of action on the facial skin” value (skin above the upper lip [2]) read?
Answer: ≤ 30 min
